These are yes or no findings as the source states them, for the method shown. Binding seen in cells or lysates may run through a third protein. Some binding calls cover weakened binding; strength is not graded here.
How the values were obtained:
[1] = target: recombinant human IL-1Ra protein (Sino Biological) (human) (UniProt P18510); assay: co-immunoprecipitation, anti-Flag beads, Western blot
[2] = target: recombinant human IL-1Ra protein (Sino Biological) (human) (UniProt P18510); assay: co-immunoprecipitation, anti-Myc beads, Western blot

The chains behind the UniProt entries cited, without tags or fusion partners. Where a name states a change or a piece, a line headed by the entry shows the natural chain unless it says otherwise. A line that says so, or that is headed by a name, gives the form on record, which may keep a tag or linker. Residues count along the entry.
UniProt P18510, residues 26-177: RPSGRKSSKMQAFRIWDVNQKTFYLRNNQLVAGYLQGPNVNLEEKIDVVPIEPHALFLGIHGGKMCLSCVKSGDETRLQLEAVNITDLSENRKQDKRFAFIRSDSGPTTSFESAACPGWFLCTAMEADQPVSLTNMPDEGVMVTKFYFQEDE
Myc-tagged control wild-type IL-1R1 protein (P14778, residues 18-569): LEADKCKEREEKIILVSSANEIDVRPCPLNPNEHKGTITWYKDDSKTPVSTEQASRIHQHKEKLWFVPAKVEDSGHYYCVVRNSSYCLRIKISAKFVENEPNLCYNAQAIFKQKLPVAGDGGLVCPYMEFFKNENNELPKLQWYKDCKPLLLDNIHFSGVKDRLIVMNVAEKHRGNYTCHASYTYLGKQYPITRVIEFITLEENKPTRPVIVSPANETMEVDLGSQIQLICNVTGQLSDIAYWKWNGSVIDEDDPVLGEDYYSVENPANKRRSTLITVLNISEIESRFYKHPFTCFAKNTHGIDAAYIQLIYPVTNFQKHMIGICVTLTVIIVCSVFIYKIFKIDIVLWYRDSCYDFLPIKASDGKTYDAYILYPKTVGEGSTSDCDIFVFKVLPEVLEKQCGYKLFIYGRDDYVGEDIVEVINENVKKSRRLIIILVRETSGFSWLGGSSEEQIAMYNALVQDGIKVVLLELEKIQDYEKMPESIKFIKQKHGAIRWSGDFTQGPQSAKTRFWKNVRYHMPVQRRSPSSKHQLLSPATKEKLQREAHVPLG
Myc-tagged K131H mutant IL-1R1 protein (P14778, form named): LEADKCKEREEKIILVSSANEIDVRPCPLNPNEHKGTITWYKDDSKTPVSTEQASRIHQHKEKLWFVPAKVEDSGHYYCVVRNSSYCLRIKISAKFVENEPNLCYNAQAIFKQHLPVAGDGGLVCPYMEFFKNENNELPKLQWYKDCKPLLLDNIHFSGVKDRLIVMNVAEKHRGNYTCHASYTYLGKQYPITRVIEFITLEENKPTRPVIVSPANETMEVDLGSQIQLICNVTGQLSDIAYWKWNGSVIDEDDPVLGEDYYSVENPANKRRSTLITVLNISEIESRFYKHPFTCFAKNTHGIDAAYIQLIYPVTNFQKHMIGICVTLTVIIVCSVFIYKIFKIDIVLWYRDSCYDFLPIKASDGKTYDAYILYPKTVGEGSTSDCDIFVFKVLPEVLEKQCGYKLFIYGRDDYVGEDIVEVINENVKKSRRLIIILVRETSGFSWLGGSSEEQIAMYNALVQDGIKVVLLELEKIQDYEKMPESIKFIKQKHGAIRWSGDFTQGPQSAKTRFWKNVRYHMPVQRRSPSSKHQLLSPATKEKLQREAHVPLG
Myc-tagged K131R mutant IL-1R1 protein (P14778, form named): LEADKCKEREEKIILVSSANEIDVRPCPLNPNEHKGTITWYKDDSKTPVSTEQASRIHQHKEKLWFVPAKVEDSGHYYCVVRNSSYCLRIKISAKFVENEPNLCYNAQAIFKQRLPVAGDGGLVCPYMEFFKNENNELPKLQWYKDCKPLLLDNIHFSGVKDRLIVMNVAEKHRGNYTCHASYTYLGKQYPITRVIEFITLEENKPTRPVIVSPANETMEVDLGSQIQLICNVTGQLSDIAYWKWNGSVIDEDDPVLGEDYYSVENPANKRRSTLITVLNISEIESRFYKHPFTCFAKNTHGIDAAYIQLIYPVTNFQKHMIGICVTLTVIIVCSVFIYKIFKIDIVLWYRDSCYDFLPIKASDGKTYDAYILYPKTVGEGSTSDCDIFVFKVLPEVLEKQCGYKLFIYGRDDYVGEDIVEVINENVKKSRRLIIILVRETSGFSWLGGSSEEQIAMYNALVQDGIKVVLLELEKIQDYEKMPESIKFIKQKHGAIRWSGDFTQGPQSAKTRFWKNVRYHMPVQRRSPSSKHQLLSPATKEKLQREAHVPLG

binding [1]	binding [2]	Substance
binds	–	Flag-tagged K131E mutant IL-1R1 protein (from UniProt P14778 18-569) (receptor)
binds	–	Flag-tagged control wild-type IL-1R1 protein (from UniProt P14778 18-569) (receptor)
–	binds	Myc-tagged K131D mutant IL-1R1 protein (from UniProt P14778 18-569) (receptor)
–	binds	Myc-tagged K131E mutant IL-1R1 protein (from UniProt P14778 18-569) (receptor)
–	binds	Myc-tagged K131H mutant IL-1R1 protein (from UniProt P14778 18-569) (receptor)
–	binds	Myc-tagged K131R mutant IL-1R1 protein (from UniProt P14778 18-569) (receptor)
–	binds	Myc-tagged control wild-type IL-1R1 protein (from UniProt P14778 18-569) (receptor)

Source: EP4667484A1
